In test [1] the target is T1, SRSF3 (endogenous) (human (endogenous in HeLa)) (UniProt P84103).
T1 sequence: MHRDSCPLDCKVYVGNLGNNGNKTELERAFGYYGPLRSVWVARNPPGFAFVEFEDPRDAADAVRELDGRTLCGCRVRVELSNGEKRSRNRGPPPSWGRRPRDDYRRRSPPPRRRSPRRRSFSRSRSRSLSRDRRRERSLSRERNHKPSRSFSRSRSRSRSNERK
As to the kind of experiment: co-IP; endogenous IP: lysate of untreated HeLa cells with primary antibody (5 ug/IP) or rabbit IgG control, 4 °C, 2 h, then Dynabeads Protein A; washed, with and without RNase A treatment; western blot.

Chains of the proteins cited; added tags and fusions are not shown. Lines headed by an entry give the natural chain unless they say otherwise; changes in a name come on top.
UniProt Q9UBU9: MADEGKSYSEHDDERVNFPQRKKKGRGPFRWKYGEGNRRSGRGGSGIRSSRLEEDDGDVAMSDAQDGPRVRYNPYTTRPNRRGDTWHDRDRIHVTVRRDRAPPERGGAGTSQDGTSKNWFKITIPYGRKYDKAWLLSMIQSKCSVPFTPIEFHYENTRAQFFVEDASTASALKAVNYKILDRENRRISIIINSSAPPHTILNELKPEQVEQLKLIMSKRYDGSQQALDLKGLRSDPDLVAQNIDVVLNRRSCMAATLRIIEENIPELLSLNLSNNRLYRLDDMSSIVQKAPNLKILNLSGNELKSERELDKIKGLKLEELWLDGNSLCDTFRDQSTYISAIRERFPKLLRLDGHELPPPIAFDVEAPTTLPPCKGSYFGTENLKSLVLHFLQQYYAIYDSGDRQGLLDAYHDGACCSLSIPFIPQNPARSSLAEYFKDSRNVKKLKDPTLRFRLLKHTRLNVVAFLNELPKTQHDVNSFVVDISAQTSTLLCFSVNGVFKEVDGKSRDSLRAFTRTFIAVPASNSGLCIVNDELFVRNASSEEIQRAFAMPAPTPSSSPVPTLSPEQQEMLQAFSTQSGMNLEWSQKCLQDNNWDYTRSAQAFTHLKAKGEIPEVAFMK

In test [2] the target is NXF1 (endogenous) (human (endogenous in HeLa)) (UniProt Q9UBU9). The test is described as above.

These are yes or no findings as the source states them, for the method shown. Binding seen in cells or lysates may run through a third protein. Binding can be weak; no strength is given.

With “NXF1 (endogenous) (from UniProt Q9UBU9-1)”, in test [1], the binding entry is “binds”.

B1: SRSF3 (endogenous) (protein, UniProt P84103-1 1-164)
chain: MHRDSCPLDCKVYVGNLGNNGNKTELERAFGYYGPLRSVWVARNPPGFAFVEFEDPRDAADAVRELDGRTLCGCRVRVELSNGEKRSRNRGPPPSWGRRPRDDYRRRSPPPRRRSPRRRSFSRSRSRSLSRDRRRERSLSRERNHKPSRSFSRSRSRSRSNERK
In the case of B1, the binding entry in test [2] is “binds”.

The record behind these values is PMC5648532.
